The text below walks through data of article PMC11257966.

The chains behind the UniProt entries cited, without tags or fusion partners. Where a name states a change or a piece, a line headed by the entry shows the natural chain unless it says otherwise.
UniProt P38863: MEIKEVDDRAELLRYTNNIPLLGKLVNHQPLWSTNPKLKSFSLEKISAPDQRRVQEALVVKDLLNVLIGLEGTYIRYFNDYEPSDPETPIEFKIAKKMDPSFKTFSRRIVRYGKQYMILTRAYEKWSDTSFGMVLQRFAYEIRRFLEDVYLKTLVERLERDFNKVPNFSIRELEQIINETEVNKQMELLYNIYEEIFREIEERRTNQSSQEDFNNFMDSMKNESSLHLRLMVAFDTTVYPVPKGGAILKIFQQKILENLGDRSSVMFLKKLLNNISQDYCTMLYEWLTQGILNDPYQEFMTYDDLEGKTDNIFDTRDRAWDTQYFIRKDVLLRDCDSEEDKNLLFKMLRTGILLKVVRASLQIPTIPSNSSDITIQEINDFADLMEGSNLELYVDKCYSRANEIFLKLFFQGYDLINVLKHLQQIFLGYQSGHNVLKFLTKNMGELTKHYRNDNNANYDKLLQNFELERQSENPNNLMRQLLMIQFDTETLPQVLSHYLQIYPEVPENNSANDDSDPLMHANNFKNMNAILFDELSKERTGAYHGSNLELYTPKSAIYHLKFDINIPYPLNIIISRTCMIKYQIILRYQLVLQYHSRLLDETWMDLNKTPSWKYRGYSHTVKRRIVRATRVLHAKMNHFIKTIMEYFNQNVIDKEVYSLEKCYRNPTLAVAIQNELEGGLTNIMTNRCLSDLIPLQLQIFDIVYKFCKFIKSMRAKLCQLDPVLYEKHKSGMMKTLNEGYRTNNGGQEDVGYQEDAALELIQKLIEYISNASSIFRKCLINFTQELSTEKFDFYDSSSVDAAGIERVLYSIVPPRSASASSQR
UniProt P53540: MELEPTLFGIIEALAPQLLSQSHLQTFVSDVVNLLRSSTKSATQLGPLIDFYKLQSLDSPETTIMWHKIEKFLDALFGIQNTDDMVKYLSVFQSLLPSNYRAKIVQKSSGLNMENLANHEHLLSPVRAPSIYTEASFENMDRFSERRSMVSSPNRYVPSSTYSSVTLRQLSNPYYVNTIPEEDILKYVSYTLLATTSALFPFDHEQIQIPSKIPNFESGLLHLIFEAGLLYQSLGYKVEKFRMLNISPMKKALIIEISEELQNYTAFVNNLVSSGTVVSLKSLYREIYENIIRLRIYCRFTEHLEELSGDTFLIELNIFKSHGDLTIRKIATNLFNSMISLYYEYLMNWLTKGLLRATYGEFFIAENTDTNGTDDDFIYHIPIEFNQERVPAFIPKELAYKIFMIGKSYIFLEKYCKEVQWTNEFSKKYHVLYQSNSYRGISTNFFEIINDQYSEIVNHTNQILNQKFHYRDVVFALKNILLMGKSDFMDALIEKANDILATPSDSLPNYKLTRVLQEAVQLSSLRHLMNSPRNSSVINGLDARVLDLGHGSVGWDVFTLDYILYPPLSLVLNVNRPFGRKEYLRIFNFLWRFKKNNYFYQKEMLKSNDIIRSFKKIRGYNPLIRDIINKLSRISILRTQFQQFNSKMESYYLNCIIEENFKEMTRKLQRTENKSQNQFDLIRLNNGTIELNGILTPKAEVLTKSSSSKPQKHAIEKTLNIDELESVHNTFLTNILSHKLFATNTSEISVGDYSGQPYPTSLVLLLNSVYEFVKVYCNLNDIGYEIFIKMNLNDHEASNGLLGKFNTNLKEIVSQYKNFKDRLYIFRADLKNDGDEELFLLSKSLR
UniProt P53378: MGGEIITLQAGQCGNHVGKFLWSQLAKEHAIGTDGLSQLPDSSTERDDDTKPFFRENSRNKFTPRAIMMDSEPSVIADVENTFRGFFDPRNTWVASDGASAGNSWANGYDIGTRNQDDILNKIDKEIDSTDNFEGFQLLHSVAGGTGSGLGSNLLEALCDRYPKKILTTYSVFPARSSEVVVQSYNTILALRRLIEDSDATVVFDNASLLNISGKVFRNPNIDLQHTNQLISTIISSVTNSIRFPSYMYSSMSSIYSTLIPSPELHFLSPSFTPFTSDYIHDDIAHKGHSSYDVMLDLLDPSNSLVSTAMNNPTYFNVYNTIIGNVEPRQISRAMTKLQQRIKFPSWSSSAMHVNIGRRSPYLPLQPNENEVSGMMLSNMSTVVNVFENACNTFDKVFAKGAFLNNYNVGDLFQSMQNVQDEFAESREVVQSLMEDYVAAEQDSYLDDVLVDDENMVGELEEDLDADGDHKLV
UniProt P32380: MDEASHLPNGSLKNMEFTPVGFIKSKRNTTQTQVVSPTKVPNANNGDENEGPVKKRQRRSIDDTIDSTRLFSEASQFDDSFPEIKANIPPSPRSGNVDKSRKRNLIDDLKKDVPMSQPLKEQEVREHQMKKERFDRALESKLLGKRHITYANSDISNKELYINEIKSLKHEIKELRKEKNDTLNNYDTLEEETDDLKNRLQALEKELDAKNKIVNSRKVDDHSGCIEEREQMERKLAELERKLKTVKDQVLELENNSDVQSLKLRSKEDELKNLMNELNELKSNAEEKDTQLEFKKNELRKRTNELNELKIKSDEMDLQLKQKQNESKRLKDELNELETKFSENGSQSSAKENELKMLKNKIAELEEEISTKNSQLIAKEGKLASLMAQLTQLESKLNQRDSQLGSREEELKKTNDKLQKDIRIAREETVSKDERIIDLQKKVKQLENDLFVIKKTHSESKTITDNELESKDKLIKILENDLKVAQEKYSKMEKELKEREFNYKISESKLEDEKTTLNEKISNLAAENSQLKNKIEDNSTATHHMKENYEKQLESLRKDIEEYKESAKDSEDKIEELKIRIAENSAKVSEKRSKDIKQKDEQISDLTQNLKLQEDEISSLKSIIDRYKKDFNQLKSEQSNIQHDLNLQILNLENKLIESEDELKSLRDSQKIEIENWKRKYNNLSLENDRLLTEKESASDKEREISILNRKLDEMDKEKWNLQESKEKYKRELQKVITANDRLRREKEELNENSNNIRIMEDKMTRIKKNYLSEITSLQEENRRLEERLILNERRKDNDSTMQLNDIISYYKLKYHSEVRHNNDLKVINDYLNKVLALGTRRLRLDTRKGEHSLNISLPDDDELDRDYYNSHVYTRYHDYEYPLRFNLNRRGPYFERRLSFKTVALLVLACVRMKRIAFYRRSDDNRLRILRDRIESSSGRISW

These are yes or no findings as the source states them, for the method shown.

Test [1] has as its target T1, recombinant budding yeast γTuRC (composed of Spc97, Spc98, Tub4 and Spc110 amino acids 1–400, but without yeast tubulin) (S. cerevisiae) (UniProt P38863+P53540+P53378+P32380). Kind of test: SEC; gel-filtration reconstitution of recombinant γTuRC with Stu2; methods not described; both purified.
Test [2] has as its target T1, recombinant budding yeast γTuRC (composed of Spc97, Spc98, Tub4 and Spc110 amino acids 1–400, but without yeast tubulin) (S. cerevisiae). Kind of test: cross-linking; CLMS of recombinant Stu2 with recombinant budding yeast γTuRC, without yeast tubulin; follow-up experiment, methods not described; both purified.

B1: recombinant Stu2 (protein, UniProt P46675 1-888)
chain: MSGEEEVDYTTLPLEERLTYKLWKARLEAYKELNQLFRNSVGDISRDDNIQIYWRDPTLFAQYITDSNVVAQEQAIVALNSLIDAFASSSLKNAHNITLISTWTPLLVEKGLTSSRATTKTQSMSCILSLCGLDTSITQSVELVIPFFEKKLPKLIAAAANCVYELMAAFGLTNVNVQTFLPELLKHVPQLAGHGDRNVRSQTMNLIVEIYKVTGNNSDLLEEILFKKLKPIQVKDLHKLFAKVGDEPSSSKMLFEWEKRELEKKRSQEEEARKRKSILSNDEGEYQIDKDGDTLMGMETDMPPSKQQSGVQIDTFSMLPEETILDKLPKDFQERITSSKWKDRVEALEEFWDSVLSQTKKLKSTSQNYSNLLGIYGHIIQKDANIQAVALAAQSVELICDKLKTPGFSKDYVSLVFTPLLDRTKEKKPSVIEAIRKALLTICKYYDPLASSGRNEDMLKDILEHMKHKTPQIRMECTQLFNASMKEEKDGYSTLQRYLKDEVVPIVIQIVNDTQPAIRTIGFESFAILIKIFGMNTFVKTLEHLDNLKRKKIEETVKTLPNFSIASGSTHSTIETNKQTGPMENKFLLKKSSVLPSKRVASSPLRNDNKSKVNPIGSVASASKPSMVAANNKSRVLLTSKSLATPKNVVANSTDKNEKLIEEYKYRLQKLQNDEMIWTKERQSLLEKMNNTENYKIEMIKENEMLREQLKEAQSKLNEKNIQLRSKEIDVNKLSDRVLSLENELRNMEIELDRNKKRNDTNLQSMGTISSYSIPSSTVSSNYGVKSLSSALPFKEEEDVRRKEDVNYERRSSESIGDLPHRVNSLNIRPYRKNGTGVSSVSDDLDIDFNDSFASEESYKRAAAVTSTLKARIEKMKAKSRREGTTRT
For the molecule B1, the binding result in test [1] and in test [2] was “no binding” throughout.
